This test has as its target ERα in MCF7 cells (Homo sapiens (Human), UniProt P03372). Nature of the test: Test C: estrogen receptor degradation activity, ERα in cell western assay in MCF7 cells. The format is cell-based. As to conditions: 4 hours post compound addition, read-out: Degradation IC50. As to the method: Test C: Estrogen Receptor Degradation Activity
Test C involves measuring the in vitro degradation activity of the compounds of the invention.
The measurements of the degradation activities were made using abreast cancer cell ERα in cell western assay as described hereunder.
MCF7 cells (ATCC) were seeded in 384 wells microplate (collagen coated) at concentration of >9990 cells/30 μL per well in red phenol free MEM alpha medium (invitrogen) containing 5% charcoal dextran striped FBS. The following day, 9 points serial 1:5 dilution of each compound were added to the cells in 2.5 μL at final concentrations ranging from 3-0.000018 μM or 0.1 μM for fulvestrant (using as positive control). At 4 hours post compounds addition the cells were fixed by adding 25 μL of formalin (final concentration 5% formalin containing 0.1% triton) for 10 minutes at room temperature and then washed twice with PBS. Then, 50 μL of LI-COR blocking buffer containing 0.1% Triton was added to plate for 30 minutes at room temperature. LI-COR blocking buffer was removed and cells were incubated overnight at cold room with 50 μL anti-ER rabbit monoclonal antibody (Thermo scientific MA1-39540) diluted at 1:>999 in LI-COR blocking buffer containing 0.1% tween-20. […] Integrated intensities in the green fluorescence and red fluorescence were measured to determine the levels of ERα and DNA respectively.

Sequences of proteins named here, by UniProt entry; tags and fusion partners are left off.
UniProt P03372, whole entry: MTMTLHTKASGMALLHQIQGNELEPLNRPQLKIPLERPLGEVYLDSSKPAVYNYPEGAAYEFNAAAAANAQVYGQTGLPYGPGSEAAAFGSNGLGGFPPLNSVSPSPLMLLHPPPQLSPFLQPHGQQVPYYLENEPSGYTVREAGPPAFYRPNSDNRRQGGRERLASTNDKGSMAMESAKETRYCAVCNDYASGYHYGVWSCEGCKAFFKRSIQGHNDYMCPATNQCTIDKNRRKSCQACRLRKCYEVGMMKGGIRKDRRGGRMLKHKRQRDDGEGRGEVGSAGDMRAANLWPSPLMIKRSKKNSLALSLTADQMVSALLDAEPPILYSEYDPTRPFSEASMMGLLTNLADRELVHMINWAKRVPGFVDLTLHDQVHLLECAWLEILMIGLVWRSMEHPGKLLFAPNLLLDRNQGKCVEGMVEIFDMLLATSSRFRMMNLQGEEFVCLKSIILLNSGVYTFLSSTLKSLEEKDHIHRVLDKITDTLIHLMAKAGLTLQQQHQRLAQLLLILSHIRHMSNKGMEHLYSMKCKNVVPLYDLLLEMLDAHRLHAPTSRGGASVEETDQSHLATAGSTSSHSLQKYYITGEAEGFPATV

The structures appear in SMILES notation.

In patent US11149031B2, “Substituted N-(3-fluoropropyl)-pyrrolidine compounds, processes for their preparation and therapeutic uses thereof” (SANOFI, priority 2016, dated 2021) one finds DC50 data, which are given here for one compound.

With `Oc1ccc(C2=C(c3ccc(O[C@H]4CCN(CCCF)C4)cc3)c3cc(O)ccc3CC2)cc1` [Example 2, 8-[4-[(3S)-1-(3-fluoropropyl)pyrrolidin-3-yl]oxyphenyl]-7-(4-hydroxyphenyl)-5,6-dihydronaphthalen-2-ol], the DC50 amounted to 0.3 nM.
